Experimental findings from paper PMC6508782 are described below.

No constants are given. Whether binding was seen depends on the method and setting. A result given as binding can be weak or reduced; the word gives no strength.

Test [1] has as its target T1, endogenous Hcf106 (Pisum sativum (endogenous in pea thylakoid)) (UniProt Q94G16).
T1 sequence: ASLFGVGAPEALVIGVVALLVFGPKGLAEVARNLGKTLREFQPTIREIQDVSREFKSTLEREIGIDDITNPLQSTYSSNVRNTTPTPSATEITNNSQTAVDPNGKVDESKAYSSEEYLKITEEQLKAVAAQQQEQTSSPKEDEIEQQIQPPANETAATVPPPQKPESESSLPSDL
Description: native gel or EMSA; increasing [3H]Hcf106 1-107 (1:60, 1:12, 1:6, 1:3 dilutions of the translation) integrated into thylakoid, digitonin, BN-PAGE, fluorography and immunoblots with anti-Hcf106 and anti-cpTatC. Background: Mobility shift assays separate free from complexed probe on a gel.

For test [2], the target named is endogenous cpTatC (Pisum sativum (endogenous in pea thylakoid)). Nature of the test: native gel or EMSA; [3H]Hcf106 variants integrated into isolated pea thylakoid, solubilised with 2% digitonin at ~1 mg/ml chlorophyll, BN-PAGE, fluorography; read-out: migration in the ~700-kDa cpTatC/Hcf106 receptor complex.
Test [3] has the same target. Description: native gel or EMSA; increasing [3H]Hcf106 1-107 (1:60, 1:12, 1:6, 1:3 dilutions of the translation) integrated into thylakoid, digitonin, BN-PAGE, fluorography and immunoblots with anti-Hcf106 and anti-cpTatC.

For “Hcf106_(1–107) (Pisum sativum) (domain or fragment)”, the binding entry in test [1] is “binds”.

B1: wild-type Hcf106 (mature, in vitro translated, thylakoid-integrated) (protein, UniProt Q94G16 87-261)
chain: ASLFGVGAPEALVIGVVALLVFGPKGLAEVARNLGKTLREFQPTIREIQDVSREFKSTLEREIGIDDITNPLQSTYSSNVRNTTPTPSATEITNNSQTAVDPNGKVDESKAYSSEEYLKITEEQLKAVAAQQQEQTSSPKEDEIEQQIQPPANETAATVPPPQKPESESSLPSDL
For the molecule B1, the binding entry in test [2] was “binds”.

B2: Hcf106V17C (protein, UniProt Q94G16 87-261)
chain: ASLFGVGAPEALVIGVCALLVFGPKGLAEVARNLGKTLREFQPTIREIQDVSREFKSTLEREIGIDDITNPLQSTYSSNVRNTTPTPSATEITNNSQTAVDPNGKVDESKAYSSEEYLKITEEQLKAVAAQQQEQTSSPKEDEIEQQIQPPANETAATVPPPQKPESESSLPSDL
B2: in test [2], the binding result is “binds”.

B3: endogenous Hcf106 (protein, UniProt Q94G16 87-261)
chain: ASLFGVGAPEALVIGVVALLVFGPKGLAEVARNLGKTLREFQPTIREIQDVSREFKSTLEREIGIDDITNPLQSTYSSNVRNTTPTPSATEITNNSQTAVDPNGKVDESKAYSSEEYLKITEEQLKAVAAQQQEQTSSPKEDEIEQQIQPPANETAATVPPPQKPESESSLPSDL
Take B3: the binding entry in test [3] is on record as “binds”.
